This is an account of results in PubChem BioAssay AID1347426 (Functional Genomics Laboratory (NCATS/FGL), 2020).

The campaign covered roughly 31,000 sequences. About 1,400 (4.5%) were called active.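 Rule for the calls: active = median seed-adjusted z-score above 1 or below -1; inactive = the rest.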 Some of the results follow.

This test can be described thus: Novel Modifiers of Survival Motor Neuron (SMN) Protein: Gene Identification via Genome-wide siRNA Screen.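 Note: luminescence tracks full-length SMN protein made from the SMN2 reporter.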 The conditions noted are these: HEK293T SMN2-luciferase reporter, siRNA knockdown, 72 h; actives lie on both sides. Put shortly:
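Each of three siRNAs per gene is reverse-transfected (1 pmol) into reporter HEK293T cells whose luciferase output tracks SMN protein level. After 72 h culture, ONE-Glo luminescence is control-normalized, log10-transformed and MAD-standardized; Common Seed Analysis deprioritizes seed-driven hits.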
ACAAUUUCGAGAUCCAGAATT against OAS2: the median seed-adjusted z-score is inactive: 0.0758. Under GCCCAACACCUUCUAUGUATT against CD81 stands inactive: 0; under GCUUUCAAAUCGUCCGCGATT against TPSD1, inactive: 0.0848. Under GUACGGAUACCUCAAUGAATT against MMP28 stands inactive: 0.862; under GGUCCUACGUUCACCAACATT against HNF1A, inactive: -0.436. The value for GGAUGAACCCAAUCCCAAUTT against UBE2A was inactive: 0.306; that for CAGCCGCUGAAAUCCUUAATT against GRIK1 was inactive: -0.31; that for CUACUGGAUUUGCUACAUUTT against SLCO4C1 was inactive: -0.116.

Turning to GGACAUCGCGUAUCCCAAATT against SLC5A11, the median seed-adjusted z-score was inactive: -0.219. Under GGCUUACCAUACUAUGAAATT against RHOBTB1 stands inactive: -0.605; under CUCUCAAACAGAUGUUGUATT against CTGLF1, inactive: 0.0231; under GGAAAAUCUUAUACAAUGATT against KIF1B, inactive: 0.376. Under GGAUGAAACCAGUGCUGAATT against CLIC1 stands inactive: 0.288; under CAUUUGCAAUGUAAAGAAUTT against ZNF208, inactive: 0.265; under ACAUCACCCGCACCAUUUATT against P2RY4, inactive: -0.389. On to AAUCAUUUGUCACAAGAGATT against ZFAND6, for which the median seed-adjusted z-score was inactive: -0.181.

Take GCCUGUAACUCAUCGGUGATT against KCTD16: the median seed-adjusted z-score was inactive: 0.00219. Under CAGCCUCAGUGGGAAUACATT against SCN5A stands inactive: -0.167; under UGGGUGAGAUUGUCCGUAATT against HK2, inactive: -0.0135. The value for AGACUUAUGUGGAACUGUATT against HOXA4 was inactive: 0.194; that for ACUUAUGAAGUUGACCUUATT against SDHB was inactive: 0.0872; that for ACUUUGUAAUGUAAAAGGATT against IMP3 was inactive: 0.0239.

As to CAGACUUAUUACUAGAUGATT against PRDX5, the median seed-adjusted z-score is inactive: -0.0386.

As for GAAUCGCGAGCUGAAGGAATT against ATF5, the median seed-adjusted z-score is inactive: 0.233.

As for CAACGACUGAUGCUCCGAATT against TLR3, the median seed-adjusted z-score was inactive: 0.0615. The value for GGAACGAAGGUGUUGCACATT against MECR was inactive: 0.0339; that for GGAAUUUACCGAAACCCGUTT against AMZ2 was inactive: 0.26. The value for GUACUCCCAGGAUUCCAUATT against CNOT8 was inactive: 0.375; that for GUGCUCAAAUCUAAUCCAATT against DNAJC3 was inactive: 0.502; that for GUAGCACAGAGGAUUAAAATT against TTC33 was inactive: 0.104. The value for GGAUAUGGAGUGAUUCCUATT against PAQR3 was inactive: -0.0384. With GCUUUCAAAUUCUAUCGAATT against SFRS14, the median seed-adjusted z-score was inactive: -0.312. Under CUUUAAGAGUUGUUACUAATT against YEATS4 stands inactive: 0.905; under AAAUGAUCAUGCCGAAAAATT against RANBP1, inactive: 0.545; under GUAUAUUCACUGACCGUUUTT against SLC16A2, inactive: -0.302. Under GCUGGAAUCCUAGCUCGUATT against ATIC stands inactive: -0.0267; under GGUUGGUGUUCGAUGAGUATT against ANXA6, active: -1.01. The value for GGAGAUUAGCAAGACCAUUTT against HOXC10 was inactive: 0.000966; that for CCUACAACGAGAUGCCUUATT against SCPEP1 was inactive: -0.99; that for GAACCUAACCAACUAUAAATT against EPB42 was inactive: -0.294. With GCCUAAUGGUUCAUUGCUATT against IRAK4, the median seed-adjusted z-score is inactive: -0.288.

Take GGAGAAUGGUUCGACUGUUTT against CKAP5: the median seed-adjusted z-score was active: -1.87. The value for AGUUUGUCGUUCUAAAGAATT against KRT85 was inactive: -0.126; that for GGAAAACGGAAGAGGAAUATT against MAGI2 was inactive: -0.23; that for CGAGAAGUGAUCUCCAAAATT against RAPGEFL1 was inactive: 0.21. Turning to CGCAAUCACUCACAUCUCATT against ZNF502, the median seed-adjusted z-score was inactive: 0.348. As for CAGAUGGAUUAUUAGCUGATT against OAZ2, the median seed-adjusted z-score was inactive: 0.66.

With CAACCUUGCUAACCUUAUATT against SPAST, the median seed-adjusted z-score was inactive: 0.0703. Under CCAUGUAGAGGACCUAGAATT against MCL1 stands inactive: 0.225.

Regarding UGUGCUUCGUGAUACCGAUTT against MSL3, the median seed-adjusted z-score was inactive: 0.423. The value for GGUCCAUCCAAAUUGUGGATT against CYP21A2 was inactive: -0.26; that for GAAGCUUCGCUAUUAUGAATT against MPP3 was inactive: 0; that for CGAUGGACAGAAUAACUGUTT against LDLRAD3 was inactive: -0.133. The value for GGCGCAAGGAUGAAACCUATT against GALNT6 was inactive: -0.287. Under UCAUCAUUGUGAUAAACCATT against TMEM86B stands inactive: -0.465; under CAAGUGGAGCGGACACGAATT against ACOT8, inactive: 0.0643. For AGAUGAGGGUCUACAACAATT against GALNT9, the median seed-adjusted z-score is inactive: 0.787. The value for GGAUGAACUGAGACGCAAATT against SEMA4C was inactive: -0.334; that for GGAACCUCUGAAUACCAUATT against TBK1 was inactive: 0.0578. Under GCAUGACACUGGAGGUCAATT against GAS6 stands inactive: -0.493. The value for CGACUUGUUGUAUAAGUAUTT against DYNC1LI2 was inactive: -0.491; that for GGGAGUAUAUUUUGAUGAATT against RARS2 was inactive: -0.0247; that for CAAUGACCCUGGUUCACCATT against RNF14 was inactive: 0.296. Consider GCACCUCUUCAUUCCAUGATT against COQ3, for which the median seed-adjusted z-score was inactive: 0.426. Under CGUGUGACCAGAACACCUATT against ITGAL stands inactive: 0.537. Under CAAGGAUACUUAAAUCUCATT against STX19 stands inactive: 0.143; under GACUCAGAUUUACACGGAATT against NTNG1, inactive: 0.0823. Under GCAUCUCUUCUAUGCCGAATT against MATN2 stands inactive: 0.275.
